{
  "sequences": {"note": "The chains behind the UniProt entries cited, without tags or fusion partners. Where a name states a change or a piece, a line headed by the entry shows the natural chain unless it says otherwise.", "UniProt P54830": "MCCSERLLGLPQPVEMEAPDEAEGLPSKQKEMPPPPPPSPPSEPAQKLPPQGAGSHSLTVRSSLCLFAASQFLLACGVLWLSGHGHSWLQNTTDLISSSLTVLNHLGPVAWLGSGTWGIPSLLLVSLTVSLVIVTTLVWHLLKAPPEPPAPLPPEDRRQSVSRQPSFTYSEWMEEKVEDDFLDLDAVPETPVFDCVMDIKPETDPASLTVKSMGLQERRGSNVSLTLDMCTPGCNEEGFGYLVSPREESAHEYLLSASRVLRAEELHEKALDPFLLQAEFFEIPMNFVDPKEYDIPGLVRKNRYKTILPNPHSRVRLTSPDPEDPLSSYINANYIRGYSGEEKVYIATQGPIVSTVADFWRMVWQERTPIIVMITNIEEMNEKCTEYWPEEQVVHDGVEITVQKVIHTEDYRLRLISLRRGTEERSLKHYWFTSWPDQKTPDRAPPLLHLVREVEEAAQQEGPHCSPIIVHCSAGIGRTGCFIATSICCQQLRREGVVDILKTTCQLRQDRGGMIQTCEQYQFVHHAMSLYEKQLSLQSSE"},
  "source": "paper PMC5114553",
  "molecular_target": "GST-STEP46 (substrate-trapping mutant) (UniProt P54830)",
  "assay": "pull-down; GST-STEP fusion proteins (1 μg) on glutathione-sepharose 4B beads incubated with mouse hippocampal synaptosomal lysates (100 μg) in co-IP buffer overnight at 4 °C; blots with selective antibodies; only the target purified",
  "note": "These are yes or no findings as the source states them, for the method shown. Binding seen in cells or lysates may run through a third protein.",
  "data": [
    {"substance": "NMDA receptor subunit GluN2A (from UniProt P35436 23-1464)", "values": [
      {"measurement": "binding", "value": "no binding"}
    ]}
  ]
}
